Measured values reported in article PMC3755965, “A Small Peptide with Therapeutic Potential for Inflammatory Acne Vulgaris” (PLoS ONE, 2013).

Legend:
[1] = system: S. aureus 09B2499; details: LB broth, aerobic, 37°C, 24 or 48 h, A600; mean of three independent experiments in duplicates
[2] = system: S. epidermidis 09A3726; details: LB broth, aerobic, 37°C, 24 or 48 h, A600; mean of three independent experiments in duplicates; ND = no detectable activity
Protocol: (§1) The strains of P. acnes were cultured in brain heart infusion (BHI) broth (HKM, Guangzhou, China) with 1% glucose at 37°C under an anaerobic atmosphere using MGC Anaeropack systems (Mitsubishi, Gas Chemical Co., Inc, Japan), respectively. […] S. epidermidis (09A3726 and 09B2490) and S. aureus (ATCC 2592) were grown in LB (Luria-Bertani) broth as our previous report.
(§2) Briefly, samples were prepared as a stock solution in 0.9% salt water at a series of concentration. 890 µl special broth (BHI broth for P. acnes, LB broth for S. epidermidis and S. aureus), 100 µl bacterial suspension (10^8 CFU/ml) and 10 µl test sample were put together in the test tube under anaerobic conditions at 37°C for 72 h for P. acnes and under aerobic conditions at 37°C for 24 or 48 h for S. epidermidis and S. aureus. An absorbance at 600 nm was measured by a microplate reader to estimate bacterial growth. The MIC was defined as the lowest concentration of test sample completely inhibiting microorganism’s growth.

[3] = system: P. acnes ATCC11827; details: BHI broth, anaerobic, 37°C, 72 h, A600; mean of three independent experiments in duplicates; ND = no detectable activity
Protocol: as §1, §2

[4] = system: P. acnes ATCC6919; details: BHI broth, anaerobic, 37°C, 72 h, A600; mean of three independent experiments in duplicates; ND = no detectable activity
Protocol: as §1, §2

[5] = system: S. epidermidis 09B2490; details: LB broth, aerobic, 37°C, 24 or 48 h, A600; mean of three independent experiments in duplicates
Protocol: as §1, §2

MIC [1]: 1.2 µg/mL
MIC [2]: no activity
MIC [3]: 2.3 µg/mL
MIC [4]: 2.3 µg/mL
MIC [5]: 1.2 µg/mL
SMILES: CCC[C@@H]1C[C@@H](C(=O)N[C@@H]([C@H]2O[C@H](SC)[C@H](OP(=O)(O)O)[C@@H](O)[C@H]2O)[C@H](C)Cl)N(C)C1 [clindamycin, clindamycin phosphate]
